Not every detail of the peptide structures is certain; ends, links or a residue may be inferred. No end group written: not given here.
Molecular target: T1, interaction between endogenous PKCθ and CD28 (Homo sapiens, UniProt P06239)
T1 construct: endogenous in cells; host or cells: Jurkat T cells
Test: Disruption of PKCθ-CD28 interaction in anti-CD3/CD28-costimulated Jurkat T cells (co-immunoprecipitation)
Format: cell-based
Conditions: peptide 30 min 37 degrees C., anti-CD3/CD28 5 min

By UniProt entry, the sequences of proteins in these tests, tags left out. Residues count along the entry.
UniProt P06239, 2-509: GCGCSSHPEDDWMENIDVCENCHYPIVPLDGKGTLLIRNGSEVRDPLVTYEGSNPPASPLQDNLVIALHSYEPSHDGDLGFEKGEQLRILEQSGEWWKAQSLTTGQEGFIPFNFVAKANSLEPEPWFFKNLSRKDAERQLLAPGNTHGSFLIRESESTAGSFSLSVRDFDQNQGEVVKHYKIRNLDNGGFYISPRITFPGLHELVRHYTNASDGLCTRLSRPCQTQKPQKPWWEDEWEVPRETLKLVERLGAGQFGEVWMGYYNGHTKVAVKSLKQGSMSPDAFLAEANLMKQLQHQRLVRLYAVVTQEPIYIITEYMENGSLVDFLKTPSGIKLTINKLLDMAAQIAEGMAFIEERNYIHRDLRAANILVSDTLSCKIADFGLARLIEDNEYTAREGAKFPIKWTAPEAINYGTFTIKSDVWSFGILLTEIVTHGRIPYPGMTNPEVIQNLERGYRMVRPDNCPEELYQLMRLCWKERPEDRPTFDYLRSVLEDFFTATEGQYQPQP

Sequence | disruption of the interaction between endogenous PKCθ and CD28
RRRRRRRRRETRPPCVPTPGK [R9-PR] | can disrupt the interaction
RRRRRRRRRPTVGPKERPCPT [R9-Scr, reference compound] | not

Source: US20180335433A1, “COMPOSITIONS TARGETING PKC-THETA AND USES AND METHODS OF TREATING PKC-THETA PATHOLOGIES, ADVERSE IMMUNE RESPONSES AND DISEASES” (La Jolla Institute for Allergy and Immunology, priority 2011, published 2018)
